Results on one sequence are retold here after paper doi:10.1101/2023.08.04.551977 (bioRxiv, 2023).

For at least one entry, the source does not settle the construct or the ends of the probe. For part of these data: Tags and fusion partners may be left off the protein sequences shown.

In data set [1] the test system is T1, AR DBD-alt hinge (AR-v7 DBD).
T1 sequence (looked up, limits assumed): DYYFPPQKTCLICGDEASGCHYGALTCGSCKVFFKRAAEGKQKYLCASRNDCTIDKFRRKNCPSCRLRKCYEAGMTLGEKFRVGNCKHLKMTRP
Nature of the data set: BLI.

A further data set deals with T2, AR DBD-hinge (UniProt P10275).
T2 sequence (looked up): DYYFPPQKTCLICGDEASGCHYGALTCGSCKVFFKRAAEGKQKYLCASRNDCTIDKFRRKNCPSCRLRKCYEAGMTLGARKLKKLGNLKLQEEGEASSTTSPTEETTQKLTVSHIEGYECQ
The experiment in a line: BLI. The conditions noted are these: residues 551-671.

For a further data set, the system named is AR MBR-DBD-LBD. The experiment in a line: mass measurement. The conditions noted are these: 56 kDa without ARE, 154 kDa with ARE (dimer).

As to “AGCTTACATAGTACGTGATGTTCTCAAGGTCGA (double strand) [C3(1)-ARE+flanking]”, the Kd in data set [1] was determined as 710 nM; in the data set with AR DBD-hinge, 200 nM. The binding result with AR MBR-DBD-LBD is listed as “binds”.
